These results are taken from the supplement of paper PMC8728848.

Assay [1] addresses Neu5Gc(a2-8)Neu5Gc(a2-6)Gal(b1-4)GlcNAc. Briefly: glycan array binding signal (z-score within array); higher = stronger binding. To be noted: glycan notation: IUPAC condensed, linker removed. In short, it runs like this:
(§1)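 The binding signal is a Z-score computed within each array. Data were drawn from 3228 arrays in the Consortium for Functional Glycomics database, restricted to those with a known protein sequence. Scores were averaged over arrays of the same protein sequence at different concentrations or buffers, and over linkers, and negative values can be taken as non-binding.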

The target in assay [2] is Neu5Gc(b2-6)Gal(b1-4)GlcNAc. The description is as above. The following applies: glycan notation: IUPAC condensed, linker removed. In short, it runs like this: as §1

This is one part of the list.

B1: B936 (Bifidobacterium sp) (protein)
chain: MKNWKKAIALVASAAALVSVAACGPSNAGGSSDSGKKTVGFVAVGPEGGFRTANEKDIQKAFEDAGFDLTYSPTQNNDQQKQIQAFNKFVNDEVDAIILSSTEDSGWDDSLKKAAEAEIPVFTVDRNVDVKDAEAKKAIVAHIGPSNVWCGEQAAEFVNKNFPDGANGFILEGPAGLSVVKDRGTGWGNKVASNVKVLESQSANWSTDEAKTVTAGLLDKYKSDNPQFIFAQNDEMGLGAAQAVDAAGLKGKVKIITIDGTKNALQALVDGDLSYVIEYNPIFGKETAQAVKDYLDGKTVEKDIEIESKTFDAASAKEALDNNTRAY
Regarding B1, the results for the “glycan array binding signal (z-score)” value in assay [1] and in assay [2] were -0.016 and -0.393, respectively.
